PubChem BioAssay AID1259308, NCATS, 2017
Purpose: 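Candidate targets for better recombinant protein yield in mammalian cells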 (primary screen). Cells: human HEK293 embryonic kidney cells stably expressing firefly luciferase (HEK-CMV-Luc2-Hygro). Reagent: single siRNA against human genes, 0.8 pmol siRNA per well. Time to read-out: 72 h. Read-out: 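Luciferase light (ONE-Glo) measured on one replicate plate set and viability (CellTiter-Glo) on the other, scaled to a negative control siRNA, with robust z-scores and luciferase per cell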. Scale: total luciferase, z-score: higher = more reporter protein produced. Rule for the call: 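Active when the median/MAD z-score for overall luciferase is greater than 3; a gene was taken forward for validation with new siRNAs if at least two of its three siRNAs passed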. Calls: active = raised luciferase; inactive = no rise.
The whole screen tested about 59,000 reagents; shown is a part drawn at random. Of all reagents, about 1,510 (2.6%) were called active. 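Calls use total luciferase alone and ignore viability, so some active siRNAs may act by altering cell number.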 Reagents against one gene are numbered here. Not all columns of the deposit are shown. Reagent sequences are not shown.

How did the screen score SAP130 (Sin3A associated protein 130) #1?
total luciferase, z-score: -0.183; outcome: inactive

What did the screen give for SAP130 (Sin3A associated protein 130) #2?
total luciferase, z-score: 1.2; outcome: inactive

For SAP130 (Sin3A associated protein 130) #3, what was measured?
total luciferase, z-score: -1.69; outcome: inactive

Which result is listed for CPNE4 (copine 4) #1?
total luciferase, z-score: 0.0708; outcome: inactive

For CPNE4 (copine 4) #2, what does the deposit list?
total luciferase, z-score: -1.29; outcome: inactive

For CPNE4 (copine 4) #3, what was measured?
total luciferase, z-score: -0.0918; outcome: inactive

Reprinted from the listing, 2 entries:
SAP130 (Sin3A associated protein 130) #2 | total luciferase, z-score: 1.2; outcome: inactive
SAP130 (Sin3A associated protein 130) #3 | total luciferase, z-score: -1.69; outcome: inactive

More entries follow.
What did the screen give for PLEKHA3 (pleckstrin homology domain containing A3) #1?
total luciferase, z-score: 0.000753; outcome: inactive

Which result is listed for PLEKHA3 (pleckstrin homology domain containing A3) #2?
total luciferase, z-score: 1.17; outcome: inactive

With PLEKHA3 (pleckstrin homology domain containing A3) #3, how do the results read?
total luciferase, z-score: 0.209; outcome: inactive

How did the screen score NHLRC4 (NHL repeat containing 4) #1?
total luciferase, z-score: 0.566; outcome: inactive

How did the screen score NHLRC4 (NHL repeat containing 4) #2?
total luciferase, z-score: -0.912; outcome: inactive

How did the screen score NHLRC4 (NHL repeat containing 4) #3?
total luciferase, z-score: -1.01; outcome: inactive
